Patent US20210041443A1, “WNT6 AS GLIOBLASTOMA ONCOGENIC BIOMARKER, AND USES OF INHIBITORS THEREOF” (UNIVERSIDADE DO MINHO, priority 2018, published 2021)
For at least one compound, name, drawing or mass did not settle the structure.

How the values were obtained:
[1] = system: U373 shCtrl/shWNT6 cells; assay: TMZ-mediated cell death (Annexin-V and PI, flow cytometry); format: cell-based, human; conditions: TMZ 400 μM, 6 days
[2] = system: SNB19 shCtrl/shWNT6 cells; assay: as above; format: cell-based, human; conditions: TMZ 800 μM, 6 days

Question: How did the “sensitivity to TMZ mediated cell death, WNT6-silenced vs control cells” value [1] turn out when Cn1nnc2c(C(N)=O)ncn2c1=O [TMZ, temozolomide] was run?
Answer: significantly more sensitive

Question: And the “sensitivity to TMZ mediated cell death, WNT6-silenced vs control cells” value [2]?
Answer: significantly more sensitive
